Here are results for 39 compounds from the supplement of paper PMC5407854, “Inhibitor of ppGalNAc-T3-mediated O-glycosylation blocks cancer cell invasiveness and lowers FGF23 levels” (eLife, 2017).

The other results are listed elsewhere or left out. Small differences around the control level are noise.

This assay concerns ppGalNAc-T2 sensor. The assay is described as follows: T2 sensor activation Q score (MG/GFP ratio z-score vs DMSO controls) (SD units); higher = more sensor activation (inhibition of ppGalNAc-T2 glycosylation). The note with it: HEK293 sensor cells; 10 µM; 6 h. The procedure: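 Cells were treated with compound at 10 uM for 6 h, then MG/GFP ratio was read by flow cytometry (10,000 cells per well, duplicate wells). Q = (R - R_neg)/SD_neg relative to DMSO vehicle controls; the signal rises when the glycosyltransferase is inhibited.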
Consider `Cc1cccc(N2C(=O)CC(N3CCOCC3)C2=O)c1` (centres undefined), for which the “T2 sensor activation Q score” value was -0.505. Regarding `CCN(CC)S(=O)(=O)c1cc(C(=O)O)c(Cl)cc1Cl`, the “T2 sensor activation Q score” value was -0.005. The value for `CC1CC(Nc2ccccc2)c2ccccc2N1C(=O)c1cccs1` (centres undefined) was -1.54; that for `O=c1cc(O)n(-c2ccccc2)[nH]1` was -0.165; that for `c1ccc(-c2nnn(C34CC5CC(CC(C5)C3)C4)n2)cc1` was 0.03. Regarding `O=C(Nc1cc(NC(=O)c2ccccc2)cc(-c2nc3ccccc3o2)c1)c1ccccc1`, the “T2 sensor activation Q score” value was -0.28. Consider `COC(=O)NC(c1ccc(Br)cc1)C(Cl)(Cl)Cl` (centres undefined), for which the “T2 sensor activation Q score” value is -0.545.

Consider `O=C1C=C(Nc2ccccc2F)CC(c2ccccc2)C1` (centres undefined), for which the “T2 sensor activation Q score” value was determined as 0.19. The value for `COc1cc(C)c(CN2CCSCC2)cc1C` was -0.715; that for `Cc1ccc(NS(=O)(=O)c2ccc(Cl)cc2)cc1` was -0.26.

On to `O=C(C1CCN(S(=O)(=O)c2ccccc2)CC1)N1CCN(Cc2ccccc2)CC1`, for which the “T2 sensor activation Q score” value was found to be 0.105.

Turning to `O=C(O)C#CCN1C(=O)c2ccccc2C1=O`, the “T2 sensor activation Q score” value was -1.18.

Regarding `CCCCN1C(=O)C(O)=C(C(C)=O)C1c1ccc(OC)c(OC)c1` (centres undefined), the “T2 sensor activation Q score” value is -0.295. As for `O=[N+]([O-])C1CS(=O)(=O)C=C1N1CCOCC1` (centres undefined), the “T2 sensor activation Q score” value is -0.15. As to `Cc1cccc(C(=O)N2CCOCC2)c1`, the “T2 sensor activation Q score” value is -0.425. For `O=C([C@@H]1C[C@@H]1c1ccccc1)N1CCOCC1`, the “T2 sensor activation Q score” value is 0.085. Turning to `O=S(=O)(Nc1cc(Cl)c(O)c(Br)c1)c1ccc(Cl)cc1`, the “T2 sensor activation Q score” value is -1.78.

Regarding `O=c1[nH]n(-c2ccc(Cl)cc2)c(=O)c(Cl)c1Cl`, the “T2 sensor activation Q score” value came out at 1.25. On to `Cc1ccc(S(=O)(=O)c2ccc(Oc3cccc(N)c3)cc2)cc1`, for which the “T2 sensor activation Q score” value turned out to be 0.49. Take `CCN1CCN(Cc2coc3ccc(C)cc3c2=O)CC1`: the “T2 sensor activation Q score” value was -0.16. Regarding `CC(=O)c1cc(F)c(N2CCN(C(=O)c3cc(F)c(F)cc3C)CC2)cc1C`, the “T2 sensor activation Q score” value was -0.17. As for `Cc1cc(C)[n+]2nc([S-])sc2n1`, the “T2 sensor activation Q score” value amounted to 0.035. In the case of `c1ccc(-c2ccccc2OCCn2ccnc2)cc1`, the “T2 sensor activation Q score” value was found to be 0.365. For the compound `CN1CCN(Cc2cccc(OCc3ccccc3)c2)CC1`, the “T2 sensor activation Q score” value is -0.61.

Consider `COc1ccccc1CNC(=O)CCc1ccccc1`, for which the “T2 sensor activation Q score” value was -1.18. `COc1cccc(CN2CCSCC2)c1OC`: the “T2 sensor activation Q score” value came out at 0.405. For the compound `Cc1ccc(C(=O)CC(=O)c2cccc(F)c2)c(O)c1`, the “T2 sensor activation Q score” value came to 1.23.

For the compound `CC1CCCN(CC(O)COc2ccc(Cl)cc2)C1` (centres undefined), the “T2 sensor activation Q score” value is -0.02. The figure for `Cc1cccc(C(=O)NCc2ccncc2)c1` is -0.73. The value for `COc1ccc(CN2CCN(c3ccc(F)cc3)CC2)c(OC)c1C` was 0.21. Take `NNC(=O)C(=O)Nc1ccc(Cl)cc1`: the “T2 sensor activation Q score” value is -0.075. In the case of `NC(=O)N1CCN(C(=O)c2ccco2)CC1`, the “T2 sensor activation Q score” value is -0.24.

Take `Cc1ccc(-n2cnnn2)cc1Cl`: the “T2 sensor activation Q score” value is -0.52. Take `COc1cc2c(cc1OC)C(c1ccccc1[N+](=O)[O-])N(C(C)=O)CC2` (centres undefined): the “T2 sensor activation Q score” value is -1.47. As to `COc1ccc(OC)c(S(=O)(=O)c2ccc(Br)cc2)c1`, the “T2 sensor activation Q score” value amounted to 0.785. For `CCN(C(=O)c1ccco1)c1ccccc1`, the “T2 sensor activation Q score” value was -0.52.

In the case of `COc1ccc(NS(=O)(=O)c2cccc(N)c2)cc1`, the “T2 sensor activation Q score” value is -0.185. For the compound `c1ccc(Cc2nc3ccccc3o2)cc1`, the “T2 sensor activation Q score” value came to 1.1. On to `Cc1ccc(OCC(=O)Nc2ccccc2C(N)=O)cc1`, for which the “T2 sensor activation Q score” value was -0.11.
